PubChem BioAssay AID652259 | Drosophila RNAi Screening Center, 2013

Aim: 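Identify new Wingless signalling regulators in fly cells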 (primary screen)
System: Drosophila clone 8 imaginal disc epithelial cells
Reagent: long dsRNA against Drosophila genes
Treatment: pathway stimulated by co-transfected Wingless expression plasmid
Detection: 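Firefly luciferase from a tcf-site Wingless reporter, measured alongside co-transfected Renilla luciferase that tracks transfection; pathway stimulated by a Wingless plasmid; the firefly-to-Renilla ratio is not deposited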
Scale: firefly reporter light: higher = more Wg reporter light, before normalisation; Renilla control light: higher = more transfected or surviving cells
Rule for the call: 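Strong candidates differ from their plate mean by at least two out of four per-plate statistical tests; weak candidates meet just one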
Meaning of the calls: active = candidate regulator (raises or lowers reporter); inactive = not a candidate
In all, the deposit lists about 22,000 reagents; shown is an unselected part of those that have a named target and a result. Of all reagents, 233 (1.1%) got an active call. 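Light values are raw, unnormalised plate reads; the ratio scores behind the reporter calls were not deposited.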 A number with no mark means an inactive call. The numbers tell different reagents against one gene apart. A plus sign joins genes that one reagent is predicted to hit. The record does not give: the amount of reagent, the time to read-out, the dose of the treatment.

no.	Target gene	reagent no.	reporter change call, replicate 1	firefly reporter light, replicate 1	firefly reporter light, replicate 2	Renilla control light, replicate 1	Renilla control light, replicate 2
1	Mlp84B	1		11539		3200	
2	Ir100a	1		22280	7.08e5	18874	2.46e5
3	CG7741	1		10592		4294	
4	CG15021	1		2048	10000	2004	5515
5	CG10747	1		2250	8320	736	2583
6	Ser	1		8181		2802	
7	CG8155	1		16661		2085	
8	CG8155	2		2.69e5	2.52e5	1.39e5	1.13e5
9	CG31183	1		15753		2597	
10	CG31183	2		2772	7308	1408	1364
11	Prosalpha4	1		15959		9597	
12	l(2)gl	1		3504		1115	
13	Cyp6a9	1		9876		5299	
14	grau	1		2679	5941	560	2135
15	Rint1	1		4729		1608	
16	eIF3g2	1		20624		2138	
17	CG1840	1		3067	4843	1304	2246
18	CG6765	1		1352	4736	940	2152
19	Obsc	1		5004		1301	
20	Obsc	2		13424		3040	
21	Obsc	3		2021	7536	729	2791
22	Obsc	4		1722	4422	416	2098
23	Obsc	5		7.35e5	7.09e5	3.68e5	3.14e5
24	CG15115	1		4032		970	
25	Fak	1		6208		2144	
26	CG5412	1		2624	4960	1101	1788
27	MRG15	1		5131		2114	
28	CG11983	1	Wg reporter activity lowered (active)	6576		4425	
29	CG32259	1		2235		1412	
30	Scgalpha	1		2987	6363	928	3112
31	sno	1		3990	10531	1080	2387
32	CG15615	1		4681		2246	
33	OXA1L	1		3377		1638	
34	CG30156	1		19324		8112	
35	emb	1	Wg reporter activity raised (active)	34393		4448	
36	CG12236	1	Wg reporter activity raised (active)	4544	10984	352	695
37	CG12236	2		13912		7435	
38	Hao + Pex6	1		8412		2256	
39	Hao + Pex6	2		2125	6232	608	2581
40	CG31740	1		21650		12983	
41	CG18586	1		1308	6904	1372	2595
42	Cdc27	1		5585		1771	
43	CR33315	1		6.12e5	6.14e5	2.77e5	1.09e5
44	Pink1	1		1922	5907	641	2072
45	Ge-1	1		9232		1888	
46	CG13481	1		4426		1680	
47	slow	1		5939		1792	
48	slow	2		1990	5155	1322	2368
49	phyl	1		5586		2213	
